Experimental data taken from the supplement of paper PMC12823440, “Inhibitors supercharge kinase turnover through native proteolytic circuits” (Nature, 2025).
The list shows a part of the results. Hit calls seldom repeat between salt and free forms of one compound.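 Kinases, fused to nanoluciferase, were expressed in K562 cells; luminescence was measured every 4 h from 2 to 18 h as percent of control (DMSO = 100%, positive control = 0%). A time point is decreased if signal falls significantly (2 sigma). Hits were called by the authors by a rule that is not shown; the count of time points alone does not decide it.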

Amino acid sequences for entries named in this document (tags omitted). A change or cut given only in a name is not applied to a line headed by its entry.
UniProt O75460: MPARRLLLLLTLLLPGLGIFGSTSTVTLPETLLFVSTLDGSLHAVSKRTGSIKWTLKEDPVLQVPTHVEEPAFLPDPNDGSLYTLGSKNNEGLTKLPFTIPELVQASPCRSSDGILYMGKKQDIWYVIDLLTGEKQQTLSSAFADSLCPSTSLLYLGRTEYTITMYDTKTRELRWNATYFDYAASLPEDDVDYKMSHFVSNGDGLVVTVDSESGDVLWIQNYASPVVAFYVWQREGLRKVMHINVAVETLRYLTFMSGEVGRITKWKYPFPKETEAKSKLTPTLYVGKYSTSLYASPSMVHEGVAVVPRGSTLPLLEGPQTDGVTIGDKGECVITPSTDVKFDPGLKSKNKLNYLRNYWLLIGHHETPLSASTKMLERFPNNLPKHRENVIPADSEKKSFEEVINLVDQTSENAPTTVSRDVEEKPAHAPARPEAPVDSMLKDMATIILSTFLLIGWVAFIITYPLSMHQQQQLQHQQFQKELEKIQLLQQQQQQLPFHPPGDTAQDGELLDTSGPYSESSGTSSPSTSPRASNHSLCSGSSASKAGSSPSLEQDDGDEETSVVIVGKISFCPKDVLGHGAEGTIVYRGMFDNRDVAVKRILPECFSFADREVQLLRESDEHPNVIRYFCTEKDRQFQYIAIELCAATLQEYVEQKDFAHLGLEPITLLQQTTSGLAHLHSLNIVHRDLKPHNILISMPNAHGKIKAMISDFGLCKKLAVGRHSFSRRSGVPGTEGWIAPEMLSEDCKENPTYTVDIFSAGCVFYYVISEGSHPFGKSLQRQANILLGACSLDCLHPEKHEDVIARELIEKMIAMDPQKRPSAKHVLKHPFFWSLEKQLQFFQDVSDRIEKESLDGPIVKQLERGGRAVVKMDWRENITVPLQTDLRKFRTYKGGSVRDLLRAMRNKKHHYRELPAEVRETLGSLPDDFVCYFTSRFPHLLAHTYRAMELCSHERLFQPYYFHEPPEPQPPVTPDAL

Biological target: ERN1 (UniProt O75460)
Experiment: kinase-Nluc reporter destabilization hit call (1 = scored as downregulated) (binary); higher = compound decreases kinase abundance
Conditions: K562; 2-18 h

Row | SMILES | kinase-Nluc reporter destabilization hit call
1 | O=c1[nH]c2ccccc2n1C1CCN(Cc2ccc(-c3[nH]c4cc5ncnc5cc4nc3-c3ccccc3)cc2)CC1 [AKT inhibitor VIII] (2.5 µM) | inactive: 0
2 | C[C@H]1CC[C@]2(NC1)O[C@H]1C[C@H]3[C@@H]4CC[C@H]5C[C@@H](O[C@@H]6O[C@H](CO)[C@H](O[C@@H]7O[C@H](CO)[C@@H](O)[C@H](O[C@@H]8OC[C@@H](O)[C@H](O)[C@H]8O)[C@H]7O[C@@H]7O[C@H](CO)[C@@H](O)[C@H](O)[C@H]7O)[C@H](O)[C@H]6O)CC[C@]5(C)[C@H]4CC[C@]3(C)[C@H]1[C@@H]2C [Tomatine] (2.5 µM) | inactive: 0
3 | C=C[C@H]1CN2CC[C@]3(C(=O)Nc4ccccc43)[C@@H]2C[C@@H]1/C(=C\OC)C(=O)OC [Corynoxeine] (2 µM) | inactive: 0
4 | C=CC(=O)Nc1ccc2[nH]c(=O)n(C3CCN(Cc4ccc(-c5nc6cc[nH]c(=O)c6cc5-c5ccccc5)cc4)CC3)c2c1 [Borussertib] (10 µM) | inactive: 0
5 | CCOC(=O)c1c(/C(C#N)=C\N)c2ccc(Cl)c(Cl)c2n1C (10 µM) | inactive: 0
6 | CC(=O)OC(C)(C)/C=C/C(=O)[C@](C)(O)[C@H]1[C@H](O)C[C@@]2(C)[C@@H]3CC=C4[C@@H](C=C(O)C(=O)C4(C)C)[C@]3(C)C(=O)C[C@]12C [Cucurbitacin E] (2.5 µM) | inactive: 0
7 | Cc1[nH]ncc1-c1cc2nc([C@H]3CC4CCN3CC4)[nH]c(=O)c2s1 [(R)-Simurosertib] (10 µM) | inactive: 0
